Drawing on the supplement of paper PMC10849652, this text covers log2 fold change for 14 targets.

Chains of the proteins cited; added tags and fusions are not shown. Lines headed by an entry give the natural chain unless they say otherwise; changes in a name come on top.
UniProt O94806: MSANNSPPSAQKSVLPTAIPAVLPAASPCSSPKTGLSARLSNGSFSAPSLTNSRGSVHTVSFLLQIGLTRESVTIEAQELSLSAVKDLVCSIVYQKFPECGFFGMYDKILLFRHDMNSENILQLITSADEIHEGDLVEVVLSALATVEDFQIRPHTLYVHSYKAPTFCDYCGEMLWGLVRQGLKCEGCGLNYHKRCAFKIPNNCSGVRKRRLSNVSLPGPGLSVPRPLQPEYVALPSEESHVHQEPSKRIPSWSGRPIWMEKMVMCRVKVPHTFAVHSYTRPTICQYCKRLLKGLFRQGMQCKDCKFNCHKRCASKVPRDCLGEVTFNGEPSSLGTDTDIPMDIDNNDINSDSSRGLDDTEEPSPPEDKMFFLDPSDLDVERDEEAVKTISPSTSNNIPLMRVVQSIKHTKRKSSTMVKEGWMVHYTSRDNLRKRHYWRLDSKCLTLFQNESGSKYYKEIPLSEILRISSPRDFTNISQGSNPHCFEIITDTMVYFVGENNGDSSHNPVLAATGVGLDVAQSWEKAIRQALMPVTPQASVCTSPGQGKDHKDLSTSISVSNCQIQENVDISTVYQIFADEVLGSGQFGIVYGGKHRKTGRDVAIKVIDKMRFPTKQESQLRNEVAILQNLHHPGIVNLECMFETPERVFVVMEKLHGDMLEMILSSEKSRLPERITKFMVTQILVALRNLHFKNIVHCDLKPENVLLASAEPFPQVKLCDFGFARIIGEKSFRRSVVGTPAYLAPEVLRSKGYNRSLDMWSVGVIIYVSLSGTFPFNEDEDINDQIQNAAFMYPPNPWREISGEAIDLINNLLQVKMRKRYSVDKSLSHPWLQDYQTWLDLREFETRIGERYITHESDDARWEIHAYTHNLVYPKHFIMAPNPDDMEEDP
UniProt O60237: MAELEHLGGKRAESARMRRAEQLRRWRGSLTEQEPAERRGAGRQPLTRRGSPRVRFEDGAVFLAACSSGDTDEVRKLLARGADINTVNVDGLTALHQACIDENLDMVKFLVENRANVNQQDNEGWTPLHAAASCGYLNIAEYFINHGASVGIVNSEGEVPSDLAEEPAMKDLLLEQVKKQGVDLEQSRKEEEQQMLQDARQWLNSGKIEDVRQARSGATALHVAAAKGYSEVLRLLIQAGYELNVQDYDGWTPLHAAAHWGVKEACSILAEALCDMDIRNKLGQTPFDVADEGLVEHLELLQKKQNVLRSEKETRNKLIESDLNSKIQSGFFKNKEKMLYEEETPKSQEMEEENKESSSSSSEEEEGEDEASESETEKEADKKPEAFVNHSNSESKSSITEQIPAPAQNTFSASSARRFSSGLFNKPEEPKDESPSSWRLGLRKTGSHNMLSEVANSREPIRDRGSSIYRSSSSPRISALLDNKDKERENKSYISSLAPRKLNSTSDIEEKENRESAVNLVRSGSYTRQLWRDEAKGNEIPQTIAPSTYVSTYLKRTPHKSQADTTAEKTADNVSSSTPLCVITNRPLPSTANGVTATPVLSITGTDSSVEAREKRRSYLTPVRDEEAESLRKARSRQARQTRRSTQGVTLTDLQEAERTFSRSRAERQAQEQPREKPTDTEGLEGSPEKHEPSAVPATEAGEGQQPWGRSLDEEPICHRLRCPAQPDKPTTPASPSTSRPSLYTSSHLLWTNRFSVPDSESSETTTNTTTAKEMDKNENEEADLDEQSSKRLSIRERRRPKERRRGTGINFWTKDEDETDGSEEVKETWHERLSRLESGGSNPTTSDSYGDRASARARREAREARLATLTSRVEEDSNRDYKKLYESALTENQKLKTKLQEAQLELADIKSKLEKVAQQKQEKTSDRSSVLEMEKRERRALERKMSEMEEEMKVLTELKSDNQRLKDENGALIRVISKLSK
UniProt O95685: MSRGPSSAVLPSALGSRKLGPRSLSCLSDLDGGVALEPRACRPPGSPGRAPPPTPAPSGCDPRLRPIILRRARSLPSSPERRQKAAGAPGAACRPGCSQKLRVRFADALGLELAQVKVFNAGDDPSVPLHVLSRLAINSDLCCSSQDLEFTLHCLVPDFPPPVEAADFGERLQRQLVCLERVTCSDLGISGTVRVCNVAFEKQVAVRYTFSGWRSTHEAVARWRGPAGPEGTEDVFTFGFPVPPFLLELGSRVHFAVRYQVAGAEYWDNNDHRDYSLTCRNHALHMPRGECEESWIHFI
UniProt Q9BZL4: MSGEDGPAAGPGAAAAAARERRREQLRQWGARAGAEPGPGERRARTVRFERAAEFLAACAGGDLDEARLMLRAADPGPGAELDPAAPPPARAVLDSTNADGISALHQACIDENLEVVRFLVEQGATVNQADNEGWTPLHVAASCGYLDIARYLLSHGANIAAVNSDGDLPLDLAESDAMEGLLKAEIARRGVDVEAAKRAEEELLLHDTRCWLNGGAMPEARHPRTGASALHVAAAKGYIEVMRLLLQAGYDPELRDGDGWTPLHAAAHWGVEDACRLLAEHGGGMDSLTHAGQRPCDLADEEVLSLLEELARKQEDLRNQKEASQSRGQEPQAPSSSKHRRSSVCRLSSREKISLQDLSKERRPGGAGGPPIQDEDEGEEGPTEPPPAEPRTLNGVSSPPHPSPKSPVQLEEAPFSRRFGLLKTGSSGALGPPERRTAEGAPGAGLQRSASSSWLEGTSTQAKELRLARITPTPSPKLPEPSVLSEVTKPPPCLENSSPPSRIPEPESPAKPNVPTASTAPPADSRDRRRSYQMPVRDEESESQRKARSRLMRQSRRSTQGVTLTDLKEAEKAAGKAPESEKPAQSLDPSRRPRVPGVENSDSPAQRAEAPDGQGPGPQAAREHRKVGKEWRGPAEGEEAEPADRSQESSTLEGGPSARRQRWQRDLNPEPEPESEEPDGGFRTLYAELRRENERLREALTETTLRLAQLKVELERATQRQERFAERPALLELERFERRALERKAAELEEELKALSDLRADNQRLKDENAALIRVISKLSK
UniProt P13727: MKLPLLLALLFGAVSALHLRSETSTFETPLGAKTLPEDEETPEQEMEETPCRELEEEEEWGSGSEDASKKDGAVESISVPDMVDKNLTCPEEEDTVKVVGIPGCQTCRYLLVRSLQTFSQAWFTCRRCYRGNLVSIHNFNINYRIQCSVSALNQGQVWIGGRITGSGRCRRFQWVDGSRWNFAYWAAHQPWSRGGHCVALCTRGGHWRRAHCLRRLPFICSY
UniProt Q2NL68: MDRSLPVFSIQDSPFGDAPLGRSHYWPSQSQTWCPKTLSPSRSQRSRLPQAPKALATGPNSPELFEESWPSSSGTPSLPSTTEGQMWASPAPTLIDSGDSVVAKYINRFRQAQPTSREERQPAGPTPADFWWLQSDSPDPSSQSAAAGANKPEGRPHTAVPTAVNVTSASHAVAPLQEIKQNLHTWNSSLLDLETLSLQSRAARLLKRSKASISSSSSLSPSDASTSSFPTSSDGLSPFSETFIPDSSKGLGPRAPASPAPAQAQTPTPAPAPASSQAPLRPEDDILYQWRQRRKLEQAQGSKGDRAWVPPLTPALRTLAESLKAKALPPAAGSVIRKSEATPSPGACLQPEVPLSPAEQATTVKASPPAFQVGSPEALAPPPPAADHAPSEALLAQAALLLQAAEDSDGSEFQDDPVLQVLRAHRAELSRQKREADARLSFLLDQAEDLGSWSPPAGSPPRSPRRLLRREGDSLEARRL
UniProt Q6NWY9: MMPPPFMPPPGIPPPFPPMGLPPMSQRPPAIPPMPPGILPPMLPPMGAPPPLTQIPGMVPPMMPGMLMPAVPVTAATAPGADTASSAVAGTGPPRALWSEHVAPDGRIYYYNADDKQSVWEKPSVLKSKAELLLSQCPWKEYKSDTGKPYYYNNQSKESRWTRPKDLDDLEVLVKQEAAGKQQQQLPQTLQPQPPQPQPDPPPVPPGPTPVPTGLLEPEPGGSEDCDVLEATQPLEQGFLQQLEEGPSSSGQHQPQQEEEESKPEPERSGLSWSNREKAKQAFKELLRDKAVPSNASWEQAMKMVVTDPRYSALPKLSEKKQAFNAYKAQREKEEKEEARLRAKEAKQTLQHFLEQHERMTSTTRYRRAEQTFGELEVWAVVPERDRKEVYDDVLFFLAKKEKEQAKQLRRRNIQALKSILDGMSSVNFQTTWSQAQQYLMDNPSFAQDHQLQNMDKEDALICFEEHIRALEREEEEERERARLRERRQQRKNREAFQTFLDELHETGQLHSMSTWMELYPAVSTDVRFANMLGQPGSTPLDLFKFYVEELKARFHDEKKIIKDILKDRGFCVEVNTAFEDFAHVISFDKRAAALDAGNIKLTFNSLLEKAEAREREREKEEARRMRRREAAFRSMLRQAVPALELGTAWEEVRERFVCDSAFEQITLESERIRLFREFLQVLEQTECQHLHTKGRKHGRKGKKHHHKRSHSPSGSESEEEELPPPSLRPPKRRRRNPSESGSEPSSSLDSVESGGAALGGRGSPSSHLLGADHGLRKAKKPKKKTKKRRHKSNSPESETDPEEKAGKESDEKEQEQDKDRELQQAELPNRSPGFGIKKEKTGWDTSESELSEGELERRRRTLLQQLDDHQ
UniProt Q9Y5P8: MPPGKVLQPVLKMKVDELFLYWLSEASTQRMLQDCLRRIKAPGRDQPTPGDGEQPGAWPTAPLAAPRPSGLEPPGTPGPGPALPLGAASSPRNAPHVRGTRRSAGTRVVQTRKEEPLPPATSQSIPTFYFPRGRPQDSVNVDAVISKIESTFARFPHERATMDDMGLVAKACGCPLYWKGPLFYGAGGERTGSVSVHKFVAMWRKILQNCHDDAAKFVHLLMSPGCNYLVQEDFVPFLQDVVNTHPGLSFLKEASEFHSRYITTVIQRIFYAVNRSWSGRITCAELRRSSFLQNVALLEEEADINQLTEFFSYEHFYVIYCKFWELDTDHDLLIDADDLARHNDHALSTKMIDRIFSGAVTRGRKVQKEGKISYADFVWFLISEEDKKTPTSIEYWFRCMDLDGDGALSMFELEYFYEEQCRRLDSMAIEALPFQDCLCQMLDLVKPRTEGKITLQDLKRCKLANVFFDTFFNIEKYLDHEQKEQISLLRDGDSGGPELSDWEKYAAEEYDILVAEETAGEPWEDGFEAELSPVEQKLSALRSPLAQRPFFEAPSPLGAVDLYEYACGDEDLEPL
UniProt Q9Y255: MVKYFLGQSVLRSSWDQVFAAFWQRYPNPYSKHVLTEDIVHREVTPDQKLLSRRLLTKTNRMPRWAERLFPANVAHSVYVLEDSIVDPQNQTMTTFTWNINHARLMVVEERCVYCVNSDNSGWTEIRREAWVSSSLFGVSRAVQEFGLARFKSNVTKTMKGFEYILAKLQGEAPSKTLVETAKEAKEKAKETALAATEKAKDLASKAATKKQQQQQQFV
UniProt Q15173: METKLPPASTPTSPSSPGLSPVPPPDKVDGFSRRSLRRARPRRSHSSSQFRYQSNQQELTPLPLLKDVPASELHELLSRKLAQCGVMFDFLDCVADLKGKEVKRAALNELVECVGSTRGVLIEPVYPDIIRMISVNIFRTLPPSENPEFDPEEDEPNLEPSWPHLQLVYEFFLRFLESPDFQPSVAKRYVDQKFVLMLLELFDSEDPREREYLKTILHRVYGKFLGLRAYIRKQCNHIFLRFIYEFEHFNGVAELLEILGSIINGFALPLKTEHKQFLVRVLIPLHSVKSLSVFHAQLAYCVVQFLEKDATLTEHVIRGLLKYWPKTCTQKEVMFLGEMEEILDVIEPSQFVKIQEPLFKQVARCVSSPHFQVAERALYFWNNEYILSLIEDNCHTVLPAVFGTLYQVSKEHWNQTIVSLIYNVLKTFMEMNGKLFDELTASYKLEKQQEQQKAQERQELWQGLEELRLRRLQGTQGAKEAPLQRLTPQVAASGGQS
UniProt Q9ULR3: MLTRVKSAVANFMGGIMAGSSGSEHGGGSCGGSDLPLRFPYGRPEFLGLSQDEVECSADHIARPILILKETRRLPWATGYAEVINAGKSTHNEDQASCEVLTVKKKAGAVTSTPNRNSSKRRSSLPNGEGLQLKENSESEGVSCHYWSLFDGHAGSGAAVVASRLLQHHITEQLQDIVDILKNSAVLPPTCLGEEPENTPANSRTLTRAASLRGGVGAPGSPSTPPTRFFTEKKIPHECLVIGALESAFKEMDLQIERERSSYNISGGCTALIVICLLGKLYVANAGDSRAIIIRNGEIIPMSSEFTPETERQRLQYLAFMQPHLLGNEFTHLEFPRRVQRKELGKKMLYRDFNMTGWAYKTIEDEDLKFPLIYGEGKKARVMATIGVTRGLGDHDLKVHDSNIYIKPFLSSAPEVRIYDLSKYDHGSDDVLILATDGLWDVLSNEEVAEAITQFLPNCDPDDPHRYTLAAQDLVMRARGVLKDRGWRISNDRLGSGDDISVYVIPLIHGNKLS

Some of the results follow.

Compound in this test: O=C1NC(=O)C(c2cnc3ccccn23)=C1c1cn2c3c(cc(F)cc13)CN(C(=O)N1CCCCC1)CC2
The test is described as follows: log2 fold change, soluble protein after heating vs DMSO (PISA); higher = thermal stabilisation; K562 lysate, 10 uM; active = over 0.2 and 3.5 SD of the protein, either way, in both replicates (recomputed). The procedure, abridged:
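Quantification was by TMTpro 16plex LC-MS/MS with equalised channel sums, applied to the supernatant after 21,000xg for 90 min. Samples were crude K562 extract at 1 mg/mL protein in PBS pH 7.4 with 1 mM MgCl2, treated with 10 μM compound for 30 min, heated for 3 min across 48°C-58°C, pooled and brought to 0.5% NP-40 at 4°C. Values are log-two fold changes in thermal stability relative to solvent controls, from duplicates.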
In the case of PRKD3 (UniProt O94806), the log2 fold change is inactive: 0.076.

Take PPP1R12B isoform 6 (UniProt O60237): the log2 fold change is inactive: -0.005.

For PPP1R3D (UniProt O95685), the log2 fold change is inactive: -0.016.

With PPP1R12C isoform 3 (UniProt Q9BZL4), the log2 fold change is inactive: -0.038.

As for PRG2 (UniProt P13727), the log2 fold change was inactive: 0.035.

As to PROSER3 (UniProt Q2NL68), the log2 fold change was inactive: 0.01.

In the case of PRPF40B (UniProt Q6NWY9), the log2 fold change is inactive: 0.01.

As for PPP2R3B (UniProt Q9Y5P8), the log2 fold change is inactive: -0.007.

For PRELID1 (UniProt Q9Y255), the log2 fold change was inactive: -0.024.

PRKDC (UniProt P78527): the log2 fold change is inactive: 0.207.

With PPP1R13L (UniProt Q8WUF5), the log2 fold change is inactive: -0.011.

As for PROSER3, A0A2R8Y8D9, the log2 fold change was inactive: 0.022.

Turning to PPP2R5B (UniProt Q15173), the log2 fold change is inactive: -0.065.

For the target PPM1H (UniProt Q9ULR3), the log2 fold change is inactive: -0.045.
